From publication PMC10403887
No constants are given. Whether binding was seen depends on the method and setting. Binding seen in cells or lysates may run through a third protein. Some results given as binding are weak or reduced against the parent protein; the word gives no strength. For some assays here: Sequences can lack the tags named with a protein.

T1: V5-tagged CCDC137 (human) (UniProt Q6PK04)
T1 sequence: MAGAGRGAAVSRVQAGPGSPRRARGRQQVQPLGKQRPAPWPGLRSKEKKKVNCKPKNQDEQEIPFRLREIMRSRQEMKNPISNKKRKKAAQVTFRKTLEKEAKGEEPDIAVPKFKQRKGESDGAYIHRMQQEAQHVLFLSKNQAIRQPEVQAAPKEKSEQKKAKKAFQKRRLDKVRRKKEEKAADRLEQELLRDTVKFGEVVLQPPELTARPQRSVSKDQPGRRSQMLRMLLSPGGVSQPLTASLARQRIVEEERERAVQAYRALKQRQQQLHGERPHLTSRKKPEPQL

T2: CCDC137 (endogenous, JHH-7 cells) (human (endogenous in JHH-7)) (UniProt Q6PK04)
T2 sequence: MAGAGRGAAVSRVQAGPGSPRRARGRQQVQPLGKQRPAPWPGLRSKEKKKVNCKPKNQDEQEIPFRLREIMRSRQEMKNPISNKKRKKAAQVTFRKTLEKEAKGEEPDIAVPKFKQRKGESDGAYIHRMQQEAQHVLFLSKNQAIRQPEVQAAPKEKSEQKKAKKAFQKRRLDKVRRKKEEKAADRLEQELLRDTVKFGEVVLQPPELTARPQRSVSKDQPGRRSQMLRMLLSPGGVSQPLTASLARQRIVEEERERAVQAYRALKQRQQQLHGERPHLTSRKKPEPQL


Tests used:
[1] = biological target: T1, V5-tagged CCDC137 (human); assay: co-IP; HEK293T cells transfected 48 h with V5-tagged CCDC137 and SFB-tagged DGCR8; lysed in Enhanced RIPA Lysis Buffer with Benzonase Nuclease; precipitated with V5 affinity gel and blotted with anti-Flag (Fig. 6c), or precipitated with S-protein Agarose and blotted with anti-V5 (Fig. 6d); V5-GFP or SFB-GFP as controls
[2] = biological target: T2, CCDC137 (endogenous, JHH-7 cells) (human (endogenous in JHH-7)); assay: co-IP; endogenous proteins in JHH-7 lysate (Enhanced RIPA Lysis Buffer with Benzonase Nuclease); precipitated with CCDC137 antibody (Proteintech 27201-1-AP, 2 ug) or Normal Rabbit IgG; Western blot; beta-actin as negative control

Binder	binding [1]	binding [2]
SFB-tagged DGCR8 (protein, UniProt Q8WYQ5 1-773) METDESPSPLPCGPAGEAVMESRARPFQALPREQSPPPPLQTSSGAEVMDVGSGGDGQSELPAEDPFNFYGASLLSKGSFSKGRLLIDPNCSGHSPRTARHAPAVRKFSPDLKLLKDVKISVSFTESCRSKDRKVLYTGAERDVRAECGLLLSPVSGDVHACPFGGSVGDGVGIGGESADKKDEENELDQEKRVEYAVLDELEDFTDNLELDEEGAGGFTAKAIVQRDRVDEEALNFPYEDDFDNDVDALLEEGLCAPKKRRTEEKYGGDSDHPSDGETSVQPMMTKIKTVLKSRGRPPTEPLPDGWIMTFHNSGVPVYLHRESRVVTWSRPYFLGTGSIRKHDPPLSSIPCLHYKKMKDNEEREQSSDLTPSGDVSPVKPLSRSAELEFPLDEPDSMGADPGPPDEKDPLGAEAAPGALGQVKAKVEVCKDESVDLEEFRSYLEKRFDFEQVTVKKFRTWAERRQFNREMKRKQAESERPILPANQKLITLSVQDAPTKKEFVINPNGKSEVCILHEYMQRVLKVRPVYNFFECENPSEPFGASVTIDGVTYGSGTASSKKLAKNKAARATLEILIPDFVKQTSEEKPKDSEELEYFNHISIEDSRVYELTSKAGLLSPYQILHECLKRNHGMGDTSIKFEVVPGKNQKSEYVMACGKHTVRGWCKNKRVGKQLASQKILQLLHPHVKNWGSLLRMYGRESSKMVKQETSDKSVIELQQYAKKNKPNLHILSKLQEEMKRLAEEREETRKKPKMSIVASAQPGGEPLCTVDV	binds	
DGCR8 (endogenous, JHH-7 cells) (protein, UniProt Q8WYQ5 1-773) METDESPSPLPCGPAGEAVMESRARPFQALPREQSPPPPLQTSSGAEVMDVGSGGDGQSELPAEDPFNFYGASLLSKGSFSKGRLLIDPNCSGHSPRTARHAPAVRKFSPDLKLLKDVKISVSFTESCRSKDRKVLYTGAERDVRAECGLLLSPVSGDVHACPFGGSVGDGVGIGGESADKKDEENELDQEKRVEYAVLDELEDFTDNLELDEEGAGGFTAKAIVQRDRVDEEALNFPYEDDFDNDVDALLEEGLCAPKKRRTEEKYGGDSDHPSDGETSVQPMMTKIKTVLKSRGRPPTEPLPDGWIMTFHNSGVPVYLHRESRVVTWSRPYFLGTGSIRKHDPPLSSIPCLHYKKMKDNEEREQSSDLTPSGDVSPVKPLSRSAELEFPLDEPDSMGADPGPPDEKDPLGAEAAPGALGQVKAKVEVCKDESVDLEEFRSYLEKRFDFEQVTVKKFRTWAERRQFNREMKRKQAESERPILPANQKLITLSVQDAPTKKEFVINPNGKSEVCILHEYMQRVLKVRPVYNFFECENPSEPFGASVTIDGVTYGSGTASSKKLAKNKAARATLEILIPDFVKQTSEEKPKDSEELEYFNHISIEDSRVYELTSKAGLLSPYQILHECLKRNHGMGDTSIKFEVVPGKNQKSEYVMACGKHTVRGWCKNKRVGKQLASQKILQLLHPHVKNWGSLLRMYGRESSKMVKQETSDKSVIELQQYAKKNKPNLHILSKLQEEMKRLAEEREETRKKPKMSIVASAQPGGEPLCTVDV		binds
